The results in this text go back to patent US7067646.

Protein sequences, listed by entry. Tags and fused reporters are not part of them. Lines headed by an entry give the natural chain unless they say otherwise; changes in a name come on top.
UniProt Q5T4S7: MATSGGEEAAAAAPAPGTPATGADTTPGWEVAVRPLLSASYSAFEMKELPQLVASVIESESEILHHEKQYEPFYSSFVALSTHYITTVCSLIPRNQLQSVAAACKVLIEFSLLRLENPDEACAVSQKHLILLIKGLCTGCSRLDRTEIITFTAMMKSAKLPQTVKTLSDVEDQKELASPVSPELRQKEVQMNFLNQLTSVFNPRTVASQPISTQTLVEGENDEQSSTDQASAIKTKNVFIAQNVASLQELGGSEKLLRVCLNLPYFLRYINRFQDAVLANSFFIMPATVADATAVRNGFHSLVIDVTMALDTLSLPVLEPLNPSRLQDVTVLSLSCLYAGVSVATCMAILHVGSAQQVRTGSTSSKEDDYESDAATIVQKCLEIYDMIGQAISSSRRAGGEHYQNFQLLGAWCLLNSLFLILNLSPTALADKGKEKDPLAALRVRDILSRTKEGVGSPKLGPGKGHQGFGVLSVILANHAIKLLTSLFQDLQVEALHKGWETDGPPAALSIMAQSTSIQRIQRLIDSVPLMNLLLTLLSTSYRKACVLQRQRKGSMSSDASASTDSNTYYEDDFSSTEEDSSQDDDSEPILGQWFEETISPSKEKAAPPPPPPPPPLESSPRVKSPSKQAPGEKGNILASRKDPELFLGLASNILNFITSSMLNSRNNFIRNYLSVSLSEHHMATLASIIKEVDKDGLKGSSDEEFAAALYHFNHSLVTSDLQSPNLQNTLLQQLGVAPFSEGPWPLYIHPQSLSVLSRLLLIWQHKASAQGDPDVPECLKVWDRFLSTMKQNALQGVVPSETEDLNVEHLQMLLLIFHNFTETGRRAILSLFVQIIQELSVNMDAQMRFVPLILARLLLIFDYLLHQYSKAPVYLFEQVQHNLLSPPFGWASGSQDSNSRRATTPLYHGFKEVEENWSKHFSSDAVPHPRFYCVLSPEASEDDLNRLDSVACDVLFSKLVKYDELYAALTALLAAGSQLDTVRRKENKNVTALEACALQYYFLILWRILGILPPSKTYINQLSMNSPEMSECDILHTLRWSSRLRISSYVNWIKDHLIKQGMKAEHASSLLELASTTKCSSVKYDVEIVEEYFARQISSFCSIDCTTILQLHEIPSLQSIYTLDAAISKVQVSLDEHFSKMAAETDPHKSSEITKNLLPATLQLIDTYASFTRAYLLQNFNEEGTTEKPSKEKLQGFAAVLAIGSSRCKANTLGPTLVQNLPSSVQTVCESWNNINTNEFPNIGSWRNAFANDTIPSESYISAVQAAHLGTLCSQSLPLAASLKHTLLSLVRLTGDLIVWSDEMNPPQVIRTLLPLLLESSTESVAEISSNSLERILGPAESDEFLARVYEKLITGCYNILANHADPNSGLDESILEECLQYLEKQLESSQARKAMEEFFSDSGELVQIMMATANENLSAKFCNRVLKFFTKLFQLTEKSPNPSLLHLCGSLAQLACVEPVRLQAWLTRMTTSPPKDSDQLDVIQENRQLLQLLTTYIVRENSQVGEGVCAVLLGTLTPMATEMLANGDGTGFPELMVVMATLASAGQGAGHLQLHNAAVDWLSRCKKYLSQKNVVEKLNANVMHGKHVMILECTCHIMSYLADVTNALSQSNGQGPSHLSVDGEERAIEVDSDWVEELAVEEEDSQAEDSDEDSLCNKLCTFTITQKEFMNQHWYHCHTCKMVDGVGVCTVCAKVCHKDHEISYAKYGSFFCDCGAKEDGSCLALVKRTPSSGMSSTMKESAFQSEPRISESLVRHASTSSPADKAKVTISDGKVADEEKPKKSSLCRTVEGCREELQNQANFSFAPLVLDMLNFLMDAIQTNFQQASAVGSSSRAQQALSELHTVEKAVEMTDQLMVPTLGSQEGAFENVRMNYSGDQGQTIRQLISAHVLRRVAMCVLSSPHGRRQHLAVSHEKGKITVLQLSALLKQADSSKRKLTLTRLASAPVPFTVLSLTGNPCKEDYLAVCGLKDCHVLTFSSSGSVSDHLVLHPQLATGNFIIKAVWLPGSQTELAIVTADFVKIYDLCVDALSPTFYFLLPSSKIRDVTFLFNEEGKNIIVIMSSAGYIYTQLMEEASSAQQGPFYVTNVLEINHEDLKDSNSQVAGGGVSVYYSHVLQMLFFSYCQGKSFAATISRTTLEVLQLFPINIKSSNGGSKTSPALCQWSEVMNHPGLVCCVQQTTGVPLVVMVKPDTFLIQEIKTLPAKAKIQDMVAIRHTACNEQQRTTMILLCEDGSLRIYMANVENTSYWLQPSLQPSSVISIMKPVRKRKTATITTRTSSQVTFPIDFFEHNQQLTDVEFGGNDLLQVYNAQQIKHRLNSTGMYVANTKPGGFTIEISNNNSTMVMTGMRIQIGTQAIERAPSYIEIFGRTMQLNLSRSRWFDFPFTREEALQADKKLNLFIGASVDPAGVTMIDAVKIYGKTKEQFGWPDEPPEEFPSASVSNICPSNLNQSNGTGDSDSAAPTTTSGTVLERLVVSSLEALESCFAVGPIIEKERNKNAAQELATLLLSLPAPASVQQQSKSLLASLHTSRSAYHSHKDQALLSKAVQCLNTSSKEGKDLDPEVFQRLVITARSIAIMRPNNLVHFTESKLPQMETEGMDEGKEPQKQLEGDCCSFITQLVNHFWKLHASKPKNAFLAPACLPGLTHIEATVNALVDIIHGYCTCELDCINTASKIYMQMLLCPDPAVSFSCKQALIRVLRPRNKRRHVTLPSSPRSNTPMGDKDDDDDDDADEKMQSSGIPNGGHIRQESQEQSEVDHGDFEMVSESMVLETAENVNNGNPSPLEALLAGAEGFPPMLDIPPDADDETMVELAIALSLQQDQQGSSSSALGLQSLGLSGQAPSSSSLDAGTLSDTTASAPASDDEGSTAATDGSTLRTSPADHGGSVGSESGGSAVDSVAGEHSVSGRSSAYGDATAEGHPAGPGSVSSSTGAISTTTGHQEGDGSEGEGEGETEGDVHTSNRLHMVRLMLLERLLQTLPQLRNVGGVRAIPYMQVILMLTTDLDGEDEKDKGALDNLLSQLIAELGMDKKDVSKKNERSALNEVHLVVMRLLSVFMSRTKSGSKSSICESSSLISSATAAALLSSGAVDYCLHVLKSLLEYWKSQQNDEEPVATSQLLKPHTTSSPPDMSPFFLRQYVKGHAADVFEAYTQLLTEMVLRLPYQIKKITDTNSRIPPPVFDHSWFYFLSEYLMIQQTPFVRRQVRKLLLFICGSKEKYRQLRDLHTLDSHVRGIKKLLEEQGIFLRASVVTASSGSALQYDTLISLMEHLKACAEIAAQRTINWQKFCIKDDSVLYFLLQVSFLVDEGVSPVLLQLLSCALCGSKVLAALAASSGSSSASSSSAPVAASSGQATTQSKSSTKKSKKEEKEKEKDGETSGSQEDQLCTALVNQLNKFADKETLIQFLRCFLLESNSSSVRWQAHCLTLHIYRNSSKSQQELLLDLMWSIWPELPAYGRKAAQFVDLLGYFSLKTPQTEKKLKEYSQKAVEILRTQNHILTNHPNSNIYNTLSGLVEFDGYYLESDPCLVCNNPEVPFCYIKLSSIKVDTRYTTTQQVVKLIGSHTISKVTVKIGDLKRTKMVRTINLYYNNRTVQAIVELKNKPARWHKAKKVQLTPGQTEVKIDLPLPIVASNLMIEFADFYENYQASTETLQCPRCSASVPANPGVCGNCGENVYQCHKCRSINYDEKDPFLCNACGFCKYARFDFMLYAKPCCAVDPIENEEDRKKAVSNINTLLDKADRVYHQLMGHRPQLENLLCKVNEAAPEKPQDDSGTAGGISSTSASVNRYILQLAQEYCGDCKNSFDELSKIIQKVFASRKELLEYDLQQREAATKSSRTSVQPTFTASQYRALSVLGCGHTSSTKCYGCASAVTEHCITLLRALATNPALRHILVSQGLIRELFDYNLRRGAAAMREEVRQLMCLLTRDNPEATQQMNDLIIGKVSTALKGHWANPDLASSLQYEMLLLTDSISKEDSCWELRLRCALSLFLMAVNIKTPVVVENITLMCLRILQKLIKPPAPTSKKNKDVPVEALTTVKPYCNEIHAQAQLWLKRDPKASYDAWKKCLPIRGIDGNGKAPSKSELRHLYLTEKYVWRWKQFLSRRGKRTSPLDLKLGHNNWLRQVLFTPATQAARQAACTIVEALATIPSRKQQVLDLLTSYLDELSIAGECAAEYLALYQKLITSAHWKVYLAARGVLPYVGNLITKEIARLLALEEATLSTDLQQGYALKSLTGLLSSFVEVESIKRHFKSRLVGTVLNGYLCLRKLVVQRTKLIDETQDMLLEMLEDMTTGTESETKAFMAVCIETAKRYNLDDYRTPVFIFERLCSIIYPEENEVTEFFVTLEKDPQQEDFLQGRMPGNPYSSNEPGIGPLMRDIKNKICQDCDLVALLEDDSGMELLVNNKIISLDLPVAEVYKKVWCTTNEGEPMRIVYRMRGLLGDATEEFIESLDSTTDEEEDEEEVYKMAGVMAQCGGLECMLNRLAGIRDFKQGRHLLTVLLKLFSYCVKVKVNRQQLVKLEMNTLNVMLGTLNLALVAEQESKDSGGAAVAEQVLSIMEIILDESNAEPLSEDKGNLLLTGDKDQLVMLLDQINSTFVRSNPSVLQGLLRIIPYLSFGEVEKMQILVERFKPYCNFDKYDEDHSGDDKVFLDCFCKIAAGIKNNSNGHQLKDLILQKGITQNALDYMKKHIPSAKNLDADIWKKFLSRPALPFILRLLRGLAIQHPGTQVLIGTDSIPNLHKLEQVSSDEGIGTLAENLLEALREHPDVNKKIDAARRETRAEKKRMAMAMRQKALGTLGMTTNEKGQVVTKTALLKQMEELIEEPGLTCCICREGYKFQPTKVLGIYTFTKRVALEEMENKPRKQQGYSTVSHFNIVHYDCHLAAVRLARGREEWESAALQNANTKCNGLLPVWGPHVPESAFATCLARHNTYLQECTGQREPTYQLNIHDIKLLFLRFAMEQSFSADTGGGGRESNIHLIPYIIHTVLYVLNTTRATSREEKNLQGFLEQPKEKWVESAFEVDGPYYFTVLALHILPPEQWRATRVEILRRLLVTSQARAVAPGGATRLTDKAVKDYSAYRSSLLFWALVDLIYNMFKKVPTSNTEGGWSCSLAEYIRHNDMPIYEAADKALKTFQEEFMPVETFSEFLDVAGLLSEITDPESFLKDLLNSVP

Assay [1] concerns the target MTAF600 (microtubule associated factor 600) (human) (UniProt Q5T4S7). The assay can be described thus: GST pull-down of large pocket domains, immunoblot.
Assay [2] has the same target. In words: GST pull-down from HeLa nuclear extract, anti-MTAF600 immunoblot.

Results are given in words; binding and its absence hold for the method and conditions named. In cells and extracts the contact can be indirect. Some results given as binding are weak or reduced against the parent protein; the word gives no strength. Sequences can lack the tags named with a protein.

B1: GST fusion of the large pocket domain of p107 (protein, UniProt P28749 385-1068, looked up, not shown: a dimerising Fc or GST)
chain: TPVASATQSVSRLQSIVAGLKNAPSDQLINIFESCVRNPVENIMKILKGIGETFCQHYTQSTDEQPGSHIDFAVNRLKLAEILYYKILETVMVQETRRLHGMDMSVLLEQDIFHRSLMACCLEIVLFAYSSPRTFPWIIEVLNLQPFYFYKVIEVVIRSEEGLSRDMVKHLNSIEEQILESLAWSHDSALWEALQVSANKVPTCEEVIFPNNFETGNGGNVQGHLPLMPMSPLMHPRVKEVRTDSGSLRRDMQPLSPISVHERYSSPTAGSAKRRLFGEDPPKEMLMDKIITEGTKLKIAPSSSITAENVSILPGQTLLTMATAPVTGTTGHKVTIPLHGVANDAGEITLIPLSMNTNQESKVKSPVSLTAHSLIGASPKQTNLTKAQEVHSTGINRPKRTGSLALFYRKVYHLASVRLRDLCLKLDVSNELRRKIWTCFEFTLVHCPDLMKDRHLDQLLLCAFYIMAKVTKEERTFQEIMKSYRNQPQANSHVYRSVLLKSIPREVVAYNKNINDDFEMIDCDLEDATKTPDCSSGPVKEERGDLIKFYNTIYVGRVKSFALKYDLANQDHMMDAPPLSPFPHIKQQPGSPRRISQQHSIYISPHKNGSGLTPRSALLYKFNGSPSKSLKDINNMIRQGEQRTKKRVIAIDSDAESPAKRVCQENDDVLLKRLQDVVSERANH
With B1, the binding entry in assay [1] and in assay [2] was “binds” throughout.
